PubChem BioAssay AID652259, Drosophila RNAi Screening Center, 2013
In all, the deposit lists about 22,000 reagents; shown is an unselected part of those that have a named target and a result. In the full data, 233 (1.1%) were called active. 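Light values are raw, unnormalised plate reads; the ratio scores behind the reporter calls were not deposited.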 A plus sign joins genes that one reagent is predicted to hit. Not stated in the record: the amount of reagent, the time to read-out, the dose of the treatment.

Purpose: 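Knock-downs that push a Wingless-driven reporter up or down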 (primary screen)
Cells: Drosophila clone 8 imaginal disc epithelial cells
Reagents: long dsRNA against Drosophila genes
Treatment: pathway stimulated by co-transfected Wingless expression plasmid
Measurement: 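Firefly luciferase from a tcf-site Wingless reporter, measured alongside co-transfected Renilla luciferase that tracks transfection; pathway stimulated by a Wingless plasmid; the firefly-to-Renilla ratio is not deposited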
Reading the numbers: firefly reporter light: higher = more Wg reporter light, before normalisation; Renilla control light: higher = more transfected or surviving cells
Call rule: 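Strong candidates differ from their plate mean by at least two out of four per-plate statistical tests; weak candidates meet just one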
Calls: active = candidate regulator (raises or lowers reporter); inactive = not a candidate

target gene	dsRNA	reporter change call, replicate 1	firefly reporter light, replicate 1	firefly reporter light, replicate 2	Renilla control light, replicate 1	Renilla control light, replicate 2	Outcome
CG4968	DRSC02794		14160		5563		inactive
Nepl9	DRSC02255		3618	7443	1185	4105	inactive
CG13562	DRSC04200		3725	9402	576	2598	inactive
Cyp4d2	DRSC18458		3968	5580	1225	1709	inactive
CG30222	DRSC04125		2648	5299	1085	2240	inactive
CG30222	DRSC04262		3824	8708	1384	4209	inactive
CG17784	DRSC15268		18043		16134		inactive
Spn42Dd	DRSC05024		2952	10659	123	5168	inactive
Spn42Dd	DRSC22060		5.79e5	4.81e5	2.28e5	2.30e5	inactive
CG15099	DRSC06528		14640		5370		inactive
fidipidine	DRSC07618		8672		3254		inactive
CG14974	DRSC08433		7490		2700		inactive
Usp12-46	DRSC16175		16893		13638		inactive
Osi23	DRSC15074		5100		2571		inactive
RpL11	DRSC07537		17408		2885		inactive
CG8067	DRSC07065		11640		2979		inactive
CG15107	DRSC06534		8704		2553		inactive
CG11125	DRSC06042		3307	5139	867	1985	inactive
GstE3	DRSC06673		5152		1701		inactive
CG4770	DRSC15639		13305		2957		inactive
CG17377	DRSC00950		29826		13377		inactive
CG17377	DRSC02615		18141		6661		inactive
CG17377	DRSC21811		5.94e5	6.80e5	1.78e5	1.87e5	inactive
Start1	DRSC04384		15605		4532		inactive
CG17349	DRSC02610		1792	5877	765	2173	inactive

Continued, starting with the last 2 of the part before.
target gene	dsRNA	reporter change call, replicate 1	firefly reporter light, replicate 1	firefly reporter light, replicate 2	Renilla control light, replicate 1	Renilla control light, replicate 2	Outcome
Start1	DRSC04384		15605		4532		inactive
CG17349	DRSC02610		1792	5877	765	2173	inactive
Ripalpha	DRSC02657		1985	5930	921	2981	inactive
cact	DRSC03501		10471		3083		inactive
CG32278 + CG14963	DRSC22203		7.35e5	7.12e5	3.28e5	3.30e5	inactive
ZnT49B	DRSC07225		7815		1968		inactive
Prosbeta1	DRSC07159		5208		2352		inactive
ouib	DRSC14376		16118		3939		inactive
scramb1	DRSC09724		7603		2748		inactive
scramb1	DRSC10667		8773		3120		inactive
scramb1	DRSC10668		10310		3005		inactive
CG13473	DRSC10017		6712		2116		inactive
Cht4	DRSC04603		3392	9323	1002	2867	inactive
her	DRSC03543		8376		1449		inactive
Trm7-32	DRSC15741		3271	8016	1462	2769	inactive
CG11342	DRSC08175		2035	7273	1660	3371	inactive
CG12594	DRSC14532		23765		6573		inactive
Pvf3	DRSC02284		3035	9620	941	2770	inactive
Pvf3	DRSC02285		2965	6325	918	2442	inactive
Pvf3	DRSC02286	Wg reporter activity lowered	784	1347	451	1680	active
Pvf3	DRSC02751		3049	5754	597	1824	inactive
Exo70	DRSC10774		1315	3445	875	1952	inactive
CG12464	DRSC06156		4560		2071		inactive
CG31510	DRSC14182		20346		15014		inactive
CG31206	DRSC13388		3504		1804		inactive
zda	DRSC06936		26442		6839		inactive
SF2	DRSC16845	Wg reporter activity lowered	5367		3684		active
CG34269	DRSC07884		2458		1288		inactive
Lst8	DRSC18262		2138	4365	683	1460	inactive
Tango5	DRSC18023		2677	6791	1050	2309	inactive
CG13362	DRSC17897		21740		14202		inactive
CG4053	DRSC15538		16765	6.97e5	4848	2.87e5	inactive
CG18180	DRSC10304		1808		920		inactive
Npl4	DRSC15615		3863	8252	909	2484	inactive
Npl4	DRSC15616		13531		14694		inactive
B-H1	DRSC19334		31540		10663		inactive
B-H1	DRSC21922		6.71e5	5.71e5	2.75e5	2.77e5	inactive
CG16898	DRSC06635		4672		1866		inactive
MED31	DRSC12142	Wg reporter activity raised	13749		2027		active
DNaseII	DRSC16310		3221	5426	929	1712	inactive
Sur	DRSC03447		6739		1805		inactive
CG7739	DRSC10910		4641		2258		inactive
Sem1	DRSC02282		3580	5778	608	1280	inactive
CG5334	DRSC19941		26768		10473		inactive
kirre	DRSC18785		18288		12699		inactive
Cmtr1	DRSC18400		15384		7853		inactive
CG32447	DRSC11732		7785		3852		inactive
CG32447	DRSC11805		20464		5238		inactive
COX4	DRSC02091		5830		1696		inactive
Csas	DRSC22390		3.82e5	4.39e5	1.22e5	1.41e5	inactive
